Assay results published in patent US20030219740A1.
No constants are given. Whether binding was seen depends on the method and setting. Some results given as binding are weak or reduced against the parent protein; the word gives no strength. Where a sequence is shown, tags or fusion partners need not be part of it.

Chains of the proteins cited; added tags and fusions are not shown. Lines headed by an entry give the natural chain unless they say otherwise; changes in a name come on top.
UniProt P04386: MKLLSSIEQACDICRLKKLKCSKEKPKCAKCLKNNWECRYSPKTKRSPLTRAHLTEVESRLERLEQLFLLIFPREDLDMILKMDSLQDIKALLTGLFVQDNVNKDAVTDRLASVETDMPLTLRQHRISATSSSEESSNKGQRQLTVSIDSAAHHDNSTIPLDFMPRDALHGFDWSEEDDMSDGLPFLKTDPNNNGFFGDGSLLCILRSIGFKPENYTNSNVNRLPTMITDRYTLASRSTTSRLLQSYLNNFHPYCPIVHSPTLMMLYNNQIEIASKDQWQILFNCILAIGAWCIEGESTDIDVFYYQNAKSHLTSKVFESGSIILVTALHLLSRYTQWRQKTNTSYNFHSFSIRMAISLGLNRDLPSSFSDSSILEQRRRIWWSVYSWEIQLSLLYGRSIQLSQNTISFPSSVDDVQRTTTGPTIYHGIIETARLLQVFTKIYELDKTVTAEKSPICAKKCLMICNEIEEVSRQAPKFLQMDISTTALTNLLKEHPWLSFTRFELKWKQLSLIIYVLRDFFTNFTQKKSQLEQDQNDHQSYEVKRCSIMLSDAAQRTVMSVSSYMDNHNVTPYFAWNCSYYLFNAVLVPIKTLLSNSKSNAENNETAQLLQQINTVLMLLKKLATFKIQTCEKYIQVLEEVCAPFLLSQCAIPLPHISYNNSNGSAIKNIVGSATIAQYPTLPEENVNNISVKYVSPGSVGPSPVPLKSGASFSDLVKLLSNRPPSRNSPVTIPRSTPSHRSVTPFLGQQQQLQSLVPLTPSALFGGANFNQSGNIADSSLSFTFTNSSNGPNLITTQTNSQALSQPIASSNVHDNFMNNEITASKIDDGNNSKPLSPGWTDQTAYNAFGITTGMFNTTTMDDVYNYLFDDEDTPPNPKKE

B1: id1 (GAL4-AD library fusion) (protein, UniProt P41134 1-155, looked up, not shown: large carriers)
chain: MKVASGSTATAAAGPSCALKAGKTASGAGEVVRCLSEQSVAISRCAGGAGARLPALLDEQQVNVLLYDMNGCYSRLKELVPTLPQNRKVSKVEILQHVIDYIRDLQLELNSESEVGTPGGRGLPVRAPLSTLNGEISALTAEAACVPADDRILCR
B2: id2 (GAL4-AD library fusion) (protein, UniProt Q02363 1-134, looked up, not shown: large carriers)
chain: MKAFSPVRSVRKNSLSDHSLGISRSKTPVDDPMSLLYNMNDCYSKLKELVPSIPQNKKVSKMEILQHVIDYILDLQIALDSHPTIVSLHHQRPGQNQASRTPLTTLNTDISILSLQASEFPSELMSNDSKALCG
B3: id3 (GAL4-AD library fusion) (protein, UniProt Q02535 1-119, looked up, not shown: large carriers)
chain: MKALSPVRGCYEAVCCLSERSLAIARGRGKGPAAEEPLSLLDDMNHCYSRLRELVPGVPRGTQLSQVEILQRVIDYILDLQVVLAEPAPGPPDGPHLPIQTAELTPELVISNDKRSFCH

target: GAL4-BD fusion of a fragment of the E12 gene consisting of nucleotides 1528-1962 that encode the bHLH motif (UniProt P04386); test: yeast two-hybrid screen (HIS3 selection, β-galactosidase filter assay)

binding, binds:
B1
B2
B3
